The values that follow come from patent publication US6399349B1, “Human aminopeptidase P gene” (priority 1997, dated 2002).

The target in the test is T1, rat lung aminopeptidase P (rat) (UniProt Q99MA2).
T1 sequence (looked up): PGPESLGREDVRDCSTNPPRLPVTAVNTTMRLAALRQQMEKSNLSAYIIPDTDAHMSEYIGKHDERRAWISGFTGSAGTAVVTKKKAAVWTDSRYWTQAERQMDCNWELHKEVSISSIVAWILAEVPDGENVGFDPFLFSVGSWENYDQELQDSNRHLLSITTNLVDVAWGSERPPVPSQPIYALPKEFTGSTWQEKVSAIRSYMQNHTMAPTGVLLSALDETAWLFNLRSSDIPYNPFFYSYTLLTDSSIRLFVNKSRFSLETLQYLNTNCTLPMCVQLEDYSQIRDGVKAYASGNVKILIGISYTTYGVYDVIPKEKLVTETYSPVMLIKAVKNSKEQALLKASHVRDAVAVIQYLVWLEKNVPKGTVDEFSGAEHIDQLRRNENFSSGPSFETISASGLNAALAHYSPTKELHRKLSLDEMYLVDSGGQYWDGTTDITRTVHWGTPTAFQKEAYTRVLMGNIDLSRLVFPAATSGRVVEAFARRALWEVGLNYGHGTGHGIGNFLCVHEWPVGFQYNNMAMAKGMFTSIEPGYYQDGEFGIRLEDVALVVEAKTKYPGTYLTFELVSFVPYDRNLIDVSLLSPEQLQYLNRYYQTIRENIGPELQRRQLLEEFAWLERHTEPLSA
In words: inferred from inhibition of APPBz-^3H hydrolysis.

These are yes or no findings as the source states them, for the method shown. Some binding calls cover weakened binding; strength is not graded here.

Take PPGFSPFR [des-Arg^1-bradykinin]: the binding entry is listed as “binds”.
